Values as published with doi:10.1371/journal.pone.0140310, rounded.

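Human melanoma cell lines in 1,536-well plates were treated with a pair of drugs for 72 h, then fixed, stained and imaged. The read-out is the fraction of cleaved-PARP-positive nuclei, in % of that fraction in the DMSO control; 200 means twice the control level of this apoptosis marker. Every drug was used at one fixed concentration, the higher of two screened. The file gives one value for each pair and line, without errors, so small differences may be noise. Basal and induced levels differ widely between cell lines.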
An unselected part of the screen is shown.
An entry leaves out what has no value listed here.
A dash means that no value is listed here.

Compounds and concentrations:
vismodegib: CS(=O)(=O)c1ccc(C(=O)Nc2ccc(Cl)c(-c3ccccn3)c2)c(Cl)c1 at 5 µM
CHIR-265: Cn1c(Nc2ccc(C(F)(F)F)cc2)nc2cc(Oc3ccnc(-c4ncc(C(F)(F)F)[nH]4)c3)ccc21 at 0.4 µM
PLX4720: CCCS(=O)(=O)Nc1ccc(F)c(C(=O)c2c[nH]c3ncc(Cl)cc23)c1F at 0.4 µM
KU-0063794: COc1ccc(-c2ccc3c(N4CCOCC4)nc(N4C[C@@H](C)O[C@@H](C)C4)nc3n2)cc1CO at 0.1 µM
AS-252424: O=C1NC(=O)/C(=C/c2ccc(-c3ccc(F)cc3O)o2)S1 at 5 µM
TCS401: O=C(O)C(=O)Nc1sc2c(c1C(=O)O)CCNC2 at 8.33 µM
nutlin-3: COc1ccc(C2=N[C@@H](c3ccc(Cl)cc3)[C@@H](c3ccc(Cl)cc3)N2C(=O)N2CCNC(=O)C2)c(OC(C)C)c1 at 0.5 µM
embelin: CCCCCCCCCCCC1=C(O)C(=O)C=C(O)C1=O at 6 µM
AZD7762: NC(=O)Nc1cc(-c2cccc(F)c2)sc1C(=O)N[C@H]1CCCNC1 at 0.1 µM
nilotinib: Cc1cn(-c2cc(NC(=O)c3ccc(C)c(Nc4nccc(-c5cccnc5)n4)c3)cc(C(F)(F)F)c2)cn1 at 1 µM
CX-4945: O=C(O)c1ccc2c(c1)nc(Nc1cccc(Cl)c1)c1ccncc12 at 2 µM
vatalanib: Clc1ccc(Nc2nnc(Cc3ccncc3)c3ccccc23)cc1 at 10 µM
dovitinib: CN1CCN(c2ccc3nc(-c4c(N)c5c(F)cccc5[nH]c4=O)[nH]c3c2)CC1 at 0.5 µM
L-779450: Oc1cc(-c2nc(-c3ccccc3)[nH]c2-c2ccncc2)ccc1Cl at 1 µM
PF-04217903: OCCn1cc(-c2cnc3nnn(Cc4ccc5ncccc5c4)c3n2)cn1 at 5 µM
sunitinib: CCN(CC)CCNC(=O)c1c(C)[nH]c(/C=C2\C(=O)Nc3ccc(F)cc32)c1C at 2 µM
fludarabine: Nc1nc(F)nc2c1ncn2[C@@H]1O[C@H](CO)[C@@H](O)[C@@H]1O at 1 µM
OSI-906: C[C@]1(O)C[C@@H](c2nc(-c3ccc4ccc(-c5ccccc5)nc4c3)c3c(N)nccn32)C1 at 2 µM

| Pair | WM3619 | G-361 | A101D | LB2518-MEL | COLO 792 | IPC-298 | A375 | RVH-421 |
|---|---|---|---|---|---|---|---|---|
| CX-4945 + fludarabine | 134 | 151 | 101 | 126 | 216 | 113 | 505 | 132 |
| vatalanib + TCS401 | 105 | 38.7 | 57.8 | 53.8 | 101 | 79.1 | 27.6 | 97.7 |
| dovitinib + embelin | 151 | 225 | 100 | 525 | 270 | 208 | 249 | 78.0 |
| nutlin-3 + L-779450 | 170 | 452 | 149 | 69.6 | 70.4 | 247 | 239 | 117 |
| dovitinib + AS-252424 | 119 | 64.6 | 263 | 120 | 42.2 | 133 | 194 | 132 |
| L-779450 + embelin | 135 | 108 | 124 | 147 | 81.5 | 27.9 | 265 | 93.5 |
| AS-252424 + nutlin-3 | 129 | 213 | 149 | 140 | 61.4 | 46.2 | 83.5 | 73.0 |
| nilotinib + CX-4945 | 123 | 178 | 92.6 | 134 | 221 | 114 | 95.8 | 228 |
| sunitinib + AS-252424 | 87.6 | 207 | 201 | 646 | 178 | 202 | 163 | 78.6 |
| TCS401 + KU-0063794 | 142 | 66.7 | 82.3 | 75.6 | 53.5 | 108 | 59.0 | 63.4 |
| CHIR-265 + nilotinib | 162 | 646 | 124 | 386 | 186 | 203 | 177 | 65.2 |
| KU-0063794 + nilotinib | 108 | 94.7 | 202 | 136 | 70.5 | 35.0 | 62.1 | 95.2 |
| sunitinib + PF-04217903 | 78.8 | 158 | 170 | 307 | 210 | 163 | - | 27.0 |
| OSI-906 + CHIR-265 | 166 | 1020 | 229 | 438 | 1430 | 445 | 141 | 168 |
| PLX4720 + AS-252424 | 114 | 389 | 42.5 | 123 | 86.2 | 97.8 | 274 | 153 |
| sunitinib + vatalanib | 146 | 125 | 237 | 268 | 406 | 331 | 129 | 82.4 |
| CX-4945 + AZD7762 | 686 | 77.6 | 168 | 56.4 | 215 | 104 | - | 64.2 |
| OSI-906 + nilotinib | 134 | 134 | 58.5 | 212 | 164 | 116 | 51.9 | 77.1 |
| vatalanib + AS-252424 | 178 | 109 | 113 | 64.9 | 134 | 117 | 54.3 | 161 |
| nilotinib + AZD7762 | 259 | 121 | 248 | 239 | 306 | 75.0 | - | 64.2 |
| PF-04217903 + embelin | 141 | 34.9 | 66.3 | 66.8 | 133 | 41.2 | 9.0 | 156 |
| AZD7762 + vismodegib | 251 | 191 | 176 | 119 | 402 | 47.1 | - | 82.0 |
| CHIR-265 + KU-0063794 | 170 | 1710 | 175 | 202 | 1870 | 192 | 107 | 249 |
| PF-04217903 + fludarabine | 121 | 99.5 | 199 | 68.8 | 305 | 91.7 | - | 40.3 |
| vismodegib + L-779450 | 155 | 190 | 621 | 247 | 36.8 | 53.8 | 137 | 175 |
| AZD7762 + dovitinib | 279 | 191 | 198 | 110 | 106 | 230 | - | 78.3 |

The last 2 entries again:

* vismodegib + L-779450 : WM3619: 155; G-361: 190; A101D: 621; LB2518-MEL: 247; COLO 792: 36.8; IPC-298: 53.8; A375: 137; RVH-421: 175
* AZD7762 + dovitinib : WM3619: 279; G-361: 191; A101D: 198; LB2518-MEL: 110; COLO 792: 106; IPC-298: 230; RVH-421: 78.3